PubChem BioAssay AID504808, Drosophila RNAi Screening Center | 2011

- Screen: 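Chromatin factors that keep E2F targets switched off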 (primary screen)
- System: Drosophila S2 cells
- Reagents: long dsRNA against Drosophila genes
- Read-out: 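Firefly luciferase driven by E2F sites, normalised to Renilla luciferase on the same minimal promoter, measured by plate reader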
- Scale: E2F firefly: higher = more E2F reporter activity; Renilla normaliser: higher = more normaliser reporter signal
- Rule for the call: 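Called active if the normalised E2F reporter went up by over 50%; the cutoff is arbitrary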
In all, the deposit lists about 21,000 reagents; shown is a random part of those with a known target gene and a result. Of all reagents, 18 (0.084%) were called active. 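Raw counts without plate normalisation, one of two replicates; the ratio scores behind the calls were not deposited.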 Unmarked entries are inactive. A plus sign joins genes that one reagent is predicted to hit. Reagent sequences are not shown. Not stated in the record: the amount of reagent, the time to read-out.

target gene	dsRNA	E2F firefly, rep 1	Renilla normaliser, rep 1
Fpgs1	DRSC19857	1.32e5	6367
spg	DRSC14373	1.07e5	6428
spg	DRSC14881	1.07e5	5799
CG3529	DRSC10369	70044	3970
MstProx	DRSC12458	62998	4687
MstProx	DRSC12601	1.49e5	7318
ckd	DRSC08418	99501	4739
CG31275	DRSC16919	1.16e5	6793
Nepl18	DRSC14879	1.12e5	6164
CG9380	DRSC04549	1.24e5	4433
CG31365	DRSC15610	69236	3190
CG4270	DRSC00648	1.68e5	6582
Syx8	DRSC10402	1.64e5	8381
Shab	DRSC08013	1.34e5	4230
Shab	DRSC08643	1.06e5	4720
Shab	DRSC08699	74856	2785
Mocs2A + Mocs2B	DRSC13697	58913	3539
Mocs2A + Mocs2B	DRSC14219	1.13e5	5992
CG9706	DRSC11095	74116	3556
Vha13	DRSC16895	1.23e5	7182
Lectin-galC1	DRSC03362	1.01e5	4649
CG13064	DRSC09947	1.43e5	6798
fiz	DRSC20188	7908	644
grh	DRSC05680	1.78e5	6172
grh	DRSC05683	1.54e5	4809
grh	DRSC07624	75036	3575
grh	DRSC07625	1.56e5	5039
Hsp83	DRSC08664	97087	4010
eco	DRSC11006	73945	4997
CG12912	DRSC06227	81384	3903
ITP	DRSC04222	1.09e5	4985
chas	DRSC19508	2.70e5	7805
chas	DRSC19509	2.56e5	7694
CG12374	DRSC06143	1.11e5	4405
MRG15	DRSC16731	75365	3575
Acadvl	DRSC07022	80820	3499
TwdlW	DRSC15540	1.27e5	6304
nsl1	DRSC15625	78113	3309
side-V	DRSC04188	1.08e5	4681
side-V	DRSC04189	52957	4740
CG2147	DRSC18211	7564	828
nht	DRSC01976	1.04e5	4257
RpL28 + snoRNA:Or-CD12	DRSC08293	66727	4034
stck	DRSC17070	1.32e5	6304
CG7841	DRSC10922	1.56e5	7623
TwdlG	DRSC12229	1.30e5	7297
CG7992	DRSC20070	1.38e5	6410
CG13837	DRSC14687	98275	5352
asp	DRSC16903	71706	3199
Hml	DRSC11183	1.25e5	6223
Lamp1	DRSC03727	97159	3830
Or98b	DRSC16775	1.18e5	5770
Golgin97	DRSC06895	3217	180
fs(1)Yb	DRSC18777	1.23e5	5384
ABCB7	DRSC08603	93352	4266
CG7407	DRSC11824	73010	3450
CG31643	DRSC00906	1.26e5	5652
CG34183	DRSC01099	1.38e5	6630
Ir48a	DRSC05301	1.29e5	4601
CG15210	DRSC19656	1.24e5	5580
betaNACtes3	DRSC20183	1.42e5	6438
CG14662	DRSC12248	1.23e5	5408
CG13544	DRSC04186	1.03e5	4889
cup	DRSC03516	86204	3258
CG15027	DRSC19608	2.18e5	6332
CG14629	DRSC18476	84600	6170
CG4213	DRSC00641	1.56e5	5400
NfI	DRSC17158	83340	4396
Sec20	DRSC12295	1.48e5	6450
shot	DRSC05459	1.12e5	5833
shot	DRSC05460	1.34e5	5321
shot	DRSC07682	2765	219
aspr	DRSC20689	1.39e5	7209
aspr	DRSC20690	1.42e5	242
JMJD6	DRSC15787	72082	3397
CG32444	DRSC11677	72412	3533
Or33c	DRSC03388	97890	4877
Rnmt	DRSC03558	1.07e5	4547
asf1	DRSC11324	68372	4039
g	DRSC20335	74063	4451
CG12075	DRSC17801	7570	924
CG1368	DRSC19537	8302	848
Syb	DRSC07559	2766	190
CG11961	DRSC06099	77714	3757

In a second layout: results already given
target gene,dsRNA,"E2F firefly, rep 1","Renilla normaliser, rep 1"
Ir48a,DRSC05301,1.29e5,4601
CG15210,DRSC19656,1.24e5,5580
betaNACtes3,DRSC20183,1.42e5,6438
CG14662,DRSC12248,1.23e5,5408
CG13544,DRSC04186,1.03e5,4889
cup,DRSC03516,86204,3258
CG15027,DRSC19608,2.18e5,6332
